Results from patent publication US20200323920A1.
Results are given in words; binding and its absence hold for the method and conditions named. Some entries that bind do so weakly or less than the wild type.

Chains of the proteins cited; added tags and fusions are not shown. Lines headed by an entry give the natural chain unless they say otherwise; changes in a name come on top. A line that says so, or that is headed by a name, gives the form on record, which may keep a tag or linker.
recombinant human mesothelin (C-terminally containing 6-His) (manufactured by BioLegend, Inc.) (Q13421, form named): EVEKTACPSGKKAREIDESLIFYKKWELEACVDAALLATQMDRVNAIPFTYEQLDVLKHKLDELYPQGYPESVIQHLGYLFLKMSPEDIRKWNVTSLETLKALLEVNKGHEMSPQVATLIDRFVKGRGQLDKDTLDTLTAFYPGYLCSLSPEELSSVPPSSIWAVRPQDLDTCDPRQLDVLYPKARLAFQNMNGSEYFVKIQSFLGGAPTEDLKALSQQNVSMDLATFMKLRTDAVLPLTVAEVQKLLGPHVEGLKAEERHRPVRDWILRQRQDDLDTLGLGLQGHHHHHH

B1: anti-human mesothelin CAR having VH07(15)VL07 (signal peptide T) as the scFv region, on anti-human mesothelin CAR-IL-7/CCL19-expressing T cells (protein)
chain: QVQLQQSGPGLVTPSQTLSLTCAISGDSVSSNSATWNWIRQSPSRGLEWLGRTYYRSKWYNDYAVSVKSRMSINPDTSKNQFSLQLNSVTPEDTAVYYCARGMMTYYYGMDVWGQGTTVTVSSGILGSGGGGSGGGGSGGGGSQPVLTQSSSLSASPGASASLTCTLRSGINVGPYRIYWYQQKPGSPPQYLLNYKSDSDKQQGSGVPSRFSGSKDASANAGVLLISGLRSEDEADYYCMIWHSSAAVFGGGTQLTVLSIYIWAPLAGTCGVLLLSLVITRSKRSRLLHSDYMNMTPRRPGPTRKHYQPYAPPRDFAAYRSRFSVVKRGRKKLLYIFKQPFMRPVQTTQEEDGCSCRFPEEEEGGCELRVKFSRSADAPAYQQGQNQLYNELNLGRREEYDVLDKRRGRDPEMGGKPRRKNPQEGLYNELQKDKMAEAYSEIGMKGERRRGKGHDGLYQGLSTATKDTYDALHMQALPPR
B2: anti-human mesothelin CAR having VH07(15)VL07 (signal peptide P) as the scFv region, on anti-human mesothelin CAR-IL-7/CCL19-expressing T cells (protein)
chain: B1 chain
B3: anti-human mesothelin CAR having VL07(15)VH07 as the scFv region, on anti-human mesothelin CAR-IL-7/CCL19-expressing T cells (protein)
chain: QPVLTQSSSLSASPGASASLTCTLRSGINVGPYRIYWYQQKPGSPPQYLLNYKSDSDKQQGSGVPSRFSGSKDASANAGVLLISGLRSEDEADYYCMIWHSSAAVFGGGTQLTVLSGGGGSGGGGSGGGGSQVQLQQSGPGLVTPSQTLSLTCAISGDSVSSNSATWNWIRQSPSRGLEWLGRTYYRSKWYNDYAVSVKSRMSINPDTSKNQFSLQLNSVTPEDTAVYYCARGMMTYYYGMDVWGQGTTVTVSSGILGSIYIWAPLAGTCGVLLLSLVITRSKRSRLLHSDYMNMTPRRPGPTRKHYQPYAPPRDFAAYRSRFSVVKRGRKKLLYIFKQPFMRPVQTTQEEDGCSCRFPEEEEGGCELRVKFSRSADAPAYQQGQNQLYNELNLGRREEYDVLDKRRGRDPEMGGKPRRKNPQEGLYNELQKDKMAEAYSEIGMKGERRRGKGHDGLYQGLSTATKDTYDALHMQALPPR
B4: anti-human mesothelin CAR having VL07(25)VH07 as the scFv region, on anti-human mesothelin CAR-IL-7/CCL19-expressing T cells (protein)
chain: QPVLTQSSSLSASPGASASLTCTLRSGINVGPYRIYWYQQKPGSPPQYLLNYKSDSDKQQGSGVPSRFSGSKDASANAGVLLISGLRSEDEADYYCMIWHSSAAVFGGGTQLTVLSSSADDAKKDAAKKDDAKKDDAKKDGQVQLQQSGPGLVTPSQTLSLTCAISGDSVSSNSATWNWIRQSPSRGLEWLGRTYYRSKWYNDYAVSVKSRMSINPDTSKNQFSLQLNSVTPEDTAVYYCARGMMTYYYGMDVWGQGTTVTVSSGILGSIYIWAPLAGTCGVLLLSLVITRSKRSRLLHSDYMNMTPRRPGPTRKHYQPYAPPRDFAAYRSRFSVVKRGRKKLLYIFKQPFMRPVQTTQEEDGCSCRFPEEEEGGCELRVKFSRSADAPAYQQGQNQLYNELNLGRREEYDVLDKRRGRDPEMGGKPRRKNPQEGLYNELQKDKMAEAYSEIGMKGERRRGKGHDGLYQGLSTATKDTYDALHMQALPPR
B5: anti-human mesothelin CAR having VH36(15)VL36 as the scFv region, on anti-human mesothelin CAR-IL-7/CCL19-expressing T cells (protein)
chain: QVQLQQSGPGLVTPSQTLSLTCAISGDSVSSNSATWNWIRQSPSRGLEWLGRTYYRSKWYNDYAVSVKSRMSINPDTSKNQFSLQLNSVTPEDTAVYYCARGMMTYYYGMDVWGQGTTVTVSSGILLSGGGGSGGGGSGGGGSQPVLTQSSSLSASPGASASLTCTLRSGINVGPRIYWYQQKPGSPPQYLLNYKSDSDKQQGSGVPSRFSGSKDASANAGVLLISGLRSEDEADYYCMIWHSSAAVFGGGTQLTVLSIYIWAPLAGTCGVLLLSLVITRSKRSRLLHSDYMNMTPRRPGPTRKHYQPYAPPRDFAAYRSRFSVVKRGRKKLLYIFKQPFMRPVQTTQEEDGCSCRFPEEEEGGCELRVKFSRSADAPAYQQGQNQLYNELNLGRREEYDVLDKRRGRDPEMGGKPRRKNPQEGLYNELQKDKMAEAYSEIGMKGERRRGKGHDGLYQGLSTATKDTYDALHMQALPPR
B6: anti-human mesothelin CAR having VH07(25)VL07 as the scFv region, on anti-human mesothelin CAR-IL-7/CCL19-expressing T cells (protein)
chain: QVQLQQSGPGLVTPSQTLSLTCAISGDSVSSNSATWNWIRQSPSRGLEWLGRTYYRSKWYNDYAVSVKSRMSINPDTSKNQFSLQLNSVTPEDTAVYYCARGMMTYYYGMDVWGQGTTVTVSSGILGSSSADDAKKDAAKKDDAKKDDAKKDGQPVLTQSSSLSASPGASASLTCTLRSGINVGPYRIYWYQQKPGSPPQYLLNYKSDSDKQQGSGVPSRFSGSKDASANAGVLLISGLRSEDEADYYCMIWHSSAAVFGGGTQLTVLSIYIWAPLAGTCGVLLLSLVITRSKRSRLLHSDYMNMTPRRPGPTRKHYQPYAPPRDFAAYRSRFSVVKRGRKKLLYIFKQPFMRPVQTTQEEDGCSCRFPEEEEGGCELRVKFSRSADAPAYQQGQNQLYNELNLGRREEYDVLDKRRGRDPEMGGKPRRKNPQEGLYNELQKDKMAEAYSEIGMKGERRRGKGHDGLYQGLSTATKDTYDALHMQALPPR

target: recombinant human mesothelin (C-terminally containing 6-His) (manufactured by BioLegend, Inc.) (human) (UniProt Q13421); assay: flow cytometry; CAR T cells stained with recombinant human mesothelin-6-His and PE anti-6-His antibody

Row | binding | Binder
1 | binds | B1
2 | binds | B2
3 | binds | B3
4 | binds | B4
5 | binds | B5
6 | binds | B6
